# From PubChem BioAssay AID504467 (National Center for Advancing Translational Sciences (NCATS), 2011)
# The whole screen tested about 330,000 compounds, of which about 7,700 (2.3%) were called active. Inconclusive results, whose numbers are uncertain, are shown with a selection of clear calls. The call rests on the fitted dose curve; in most records, active means well fitted inhibition curve with a large enough effect; inconclusive means small, poorly fitted or top-dose-only effect, or effect the other way; inactive means flat fitted curve, though single readings scatter. Potencies beside an inconclusive call are fits to weak or partial responses and may not hold up.
# Assay: qHTS screen for small molecules that inhibit ELG1-dependent DNA repair in human embryonic kidney (HEK293T) cells expressing luciferase-tagged ELG1; further: nearly all actives have a fitted effect of over 55% in size
# Details: HEK293T ELG1-luciferase reporter, luminescence, 16 h, DNA damage induced by 5-fluorouridine; series mostly up to 46.1 µM
# Outline: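 Reporter activity after DNA damage by 5-fluorouridine is monitored. Compound-treated cells incubate 16 hr at 37 °C, then ONE-Glo is added for 30 min before luminescence reading.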
# Potency means the concentration at half of the fitted maximal effect.
row,Structure (SMILES),Potency
1,COc1ccc2[nH]c(C)c(CCNCc3cn(C)c4ccccc34)c2c1,"inconclusive: 18.3 µM [inhibitor, single point]"
2,CCCNS(=O)(=O)c1ccc(OCC(=O)N2CCN(Cc3ccc4c(c3)OCO4)CC2)c(C)c1,"inconclusive: 13 µM [inhibitor, partial curve, poor fit]"
3,CCOP(=O)(OCC)c1nc(-c2cccc3ccccc23)oc1NCCc1ccc(OC)cc1,"inconclusive: 23.1 µM [inhibitor, partial curve]"
4,Cc1cc(NC(=O)COC(=O)c2c(C)nn(Cc3ccccc3)c2Cl)no1,inactive
5,COC(=O)C1=C(c2ccc(C(C)=O)cc2)C[C@@H]2CC[C@H]1N2C(=O)N1CCOCC1,inactive
6,Nc1c(C(=O)NCCN2CCOCC2)c2nc3ccccc3nc2n1Cc1ccccc1,"inconclusive: 29.1 µM [inhibitor, single point]"
7,COc1ccc(-n2c(O)c(C(C)=NCCc3c[nH]c4ccccc34)c(=O)[nH]c2=O)cc1,inactive
8,Cc1ccc(S(=O)(=O)Oc2ccccc2C=C2C(=O)N(C)C(=O)N(C)C2=O)cc1,"inconclusive: 29.1 µM [activator, partial curve, poor fit]"
9,Cn1c(CN2CCN(C(=O)COc3ccccc3)CC2)nc2cc([N+](=O)[O-])ccc21,"inconclusive: 25.9 µM [inhibitor, single point]"
10,COc1ccc2c(c1)c(C(=O)C(C)N1CCCCC1)c(C)n2C (stereo not drawn),inactive
11,CCCCC1C(=O)NC(=S)NC1=O,inactive
12,CCOC(=O)C1(CCOc2ccccc2)CCN(C2Cc3ccccc3C2)CC1,"inconclusive: 20.6 µM [inhibitor, partial curve]"
13,OC1/C(=C/c2ccccc2C(F)(F)F)N2CCC1CC2 (stereo not drawn),inactive
14,Cc1c(C=C2C(=O)N(C)C(=S)N(C)C2=O)c2ccccc2n1CC(=O)NCC1CCCO1 (stereo not drawn),inactive
15,COC(=O)C1=C(c2ccc3ccccc3c2)C[C@@H]2CC[C@H]1N2C(=O)NCC1CC1,inactive
16,COc1ccc(C2SCC(=O)Nc3c2c(=O)[nH]n3C2CCCCCC2)cc1 (stereo not drawn),"inconclusive: 9.2 µM [inhibitor, partial curve, poor fit]"
17,CCN(CC)N=O,inactive
18,CC(Cc1ccccc1Sc1ccc(O)cc1)N(C)C (stereo not drawn),"inconclusive: 16.4 µM [inhibitor, partial curve]"
19,O=C(NCc1cn2ccccc2n1)c1ccccc1,"inconclusive: 0.112 µM [activator, full curve, poor fit]"
20,NC(N)=N/N=C/c1ccc(N(c2ccccc2)c2ccccc2)cc1,inactive
21,CN1C2CCC1CC(OC(=O)CCN1CCCC1)C2 (stereo not drawn),inactive
22,C=CCn1cc(C=C2C(=O)N(C)C(=O)N(C)C2=O)c2ccccc21,"inconclusive: 11.6 µM [activator, partial curve]"
23,CC(O)(CS(=O)(=O)c1ccccc1)C(=O)Nc1ccc(C(F)(F)F)cc1 (stereo not drawn),inactive

row,Structure (SMILES),Potency
1,C=CCNC(=S)Nc1ccc(OC(=O)Nc2ccc(Cl)c(Cl)c2)cc1,inactive
2,COc1cc2c(cc1OC)-c1c(OC)c(OC)cc3c1[C@H](C2)N(C)CC3,inactive
3,COc1ccc(CNCCc2c[nH]c3ccccc23)c(OC)c1C,"inconclusive: 18.3 µM [inhibitor, partial curve, poor fit]"
4,COC(=O)C1=C(c2cccc(OCc3ccccc3)c2)C[C@@H]2CC[C@H]1N2C(=O)NCCCOC(C)C,inactive
5,O=C(COc1ccc(Cl)cc1)N1CCN(Cc2ccc([N+](=O)[O-])cc2)CC1,"inconclusive: 10.3 µM [inhibitor, partial curve]"
6,O=C(Nc1ccc(Cl)cc1)N1CC2CC(C1)c1cccc(=O)n1C2 (stereo not drawn),"inconclusive: 29.1 µM [activator, single point]"
7,N#Cc1ccc(NC(=O)CCNC(=O)c2ccco2)cc1Cl,"inconclusive: 0.116 µM [activator, partial curve, poor fit]"
8,CN1C(=O)C(=Cc2cn(CC#N)c3ccccc23)C(=O)N(C)C1=O,inactive
9,CCOCCCn1c(N)c(C(=O)Nc2sc3c(c2C(=O)OC)CCCC3)c2nc3ccccc3nc21,"inconclusive: 23.1 µM [inhibitor, single point]"
10,C=C1C(=O)O[C@@H]2C[C@@H](C)[C@@H]3C=CC(=O)[C@@]3(C)[C@@H](OC(=O)CC(=O)O[C@H]3[C@@H]4C(=C)C(=O)O[C@@H]4C[C@@H](C)[C@@H]4C=CC(=O)[C@]43C)[C@H]12,"inconclusive: 2.31 µM [inhibitor, full curve]"
11,C[C@H]1C(=O)O[C@@H]2CCN3CC=C(COC(=O)[C@](C)(O)[C@]1(C)O)[C@H]23,inactive
12,CCC(=Nc1ccc(Cc2ccncc2)cc1)c1c(O)n(C)c(=O)n(C)c1=O,active: 7.31 µM
13,O=C1C(=O)c2ccccc2-c2ccccc21,active: 7.31 µM
14,C[C@]12CC[C@H](O)CC1=CCC1C2CC[C@@]2(C)C1C[C@@H]1CC(=O)O[C@@H]12 (stereo partly drawn),"inconclusive: 23.1 µM [inhibitor, partial curve, poor fit]"
15,CCOC(=O)c1c(C)n(Cc2ccco2)c2ccc(OC)cc12,"inconclusive: 32.6 µM [inhibitor, partial curve, poor fit]"
16,Cc1c2ccncc2c(C)c2c1[nH]c1ccccc12,"inconclusive: 13 µM [inhibitor, partial curve, poor fit]"
17,CC/C(=N\NC(=O)c1ccccc1)c1c(O)n(C2CCCCC2)c(=O)[nH]c1=O,"inconclusive: 16.4 µM [activator, partial curve, poor fit]"
18,CC[C@@]1(O)C(=O)OCc2c1cc1n(c2=O)Cc2cc3c(NC(=O)CN)cccc3nc2-1,"inconclusive: 0.58 µM [inhibitor, full curve]"
19,CCN1CCN(c2ncnc3ccc(Br)cc23)CC1,"inconclusive: 6.31 µM [inhibitor, partial curve]"
20,CC(=O)c1cccc(OCC(=O)N2CCN(CC(=O)Nc3cccc(F)c3)CC2)c1,inactive
21,CC(C)CS(=O)(=O)C1=NN2C(=N)/C(=C\c3ccc(OC(=O)c4ccco4)cc3)C(=O)N=C2S1,"inconclusive: 16.4 µM [activator, partial curve]"
22,COc1ccnc(N=CNOCc2ccc(C)cc2)c1C#N,"inconclusive: 13 µM [activator, partial curve]"
23,CC(=O)c1cn(CC(=O)NCCc2c[nH]c3ccccc23)c2ccccc12,"inconclusive: 2.59 µM [inhibitor, partial curve, poor fit]"

# 3 entries from above, with tabs:
row	Structure (SMILES)	Potency
8	Cc1ccc(S(=O)(=O)Oc2ccccc2C=C2C(=O)N(C)C(=O)N(C)C2=O)cc1	inconclusive: 29.1 µM [activator, partial curve, poor fit]
9	Cn1c(CN2CCN(C(=O)COc3ccccc3)CC2)nc2cc([N+](=O)[O-])ccc21	inconclusive: 25.9 µM [inhibitor, single point]
10	COc1ccc2c(c1)c(C(=O)C(C)N1CCCCC1)c(C)n2C (stereo not drawn)	inactive

# Continuation.

row,Structure (SMILES),Potency
1,COc1ccc(NC(=O)CCn2cc(C)c3ccccc32)cc1,"inconclusive: 20.6 µM [activator, partial curve]"
2,COc1ccc(-n2c(C)cc(C(=O)C[N+]34CCN(CC3)CC4)c2C)cc1,"inconclusive: 29.1 µM [inhibitor, single point]"
3,O=C(CN1CC(c2ccccc2)CC1=O)Nc1ccc(F)cc1 (stereo not drawn),inactive
4,Nc1c(C(=O)OCc2ccccc2)c2nc3ccccc3nc2n1Cc1cccs1,active: 20.6 µM
5,COc1ccc(OCC(=O)N2CCN(C/C=C/c3ccccc3)CC2)cc1,"inconclusive: 20.6 µM [inhibitor, partial curve, poor fit]"
6,CN(C)C(=O)Oc1ccc2c(c1)O/C(=C\c1ccccc1)C2=O,"inconclusive: 13 µM [activator, partial curve]"
7,Clc1ccc(CCC(Cn2ccnc2)Sc2c(Cl)cccc2Cl)cc1 (stereo not drawn),"inconclusive: 11.2 µM [inhibitor, single point]"
8,O=C1/C(=C/c2ccccc2Cl)N2CCC1CC2,"inconclusive: 6.51 µM [inhibitor, single point]"
9,CC(=NCc1ccc2c(c1)OCO2)c1c(O)n(-c2ccc(C)cc2)c(=O)[nH]c1=O,inactive
10,CCCc1nc2ccccc2c(=O)n1-c1ccc(O)cc1,inactive
11,COC(=O)C1=C(c2ccc(C(C)=O)cc2)C[C@@H]2CC[C@H]1N2C(=O)N1CCC(O)(c2ccc(Cl)cc2)CC1,"inconclusive: 25.9 µM [inhibitor, single point]"
12,CN1C(=O)C(=Cc2ccc(OCC(=O)Nc3ccccc3)cc2)C(=O)N(C)C1=O,"inconclusive: 23.1 µM [activator, partial curve]"
13,Nc1c2c(nc3sc4c(c13)CCCCC4)CCCC2,"inconclusive: 5.8 µM [activator, single point]"
14,C=Cn1ccnc1P(O)(=S)c1nc(C)c(CCOC(C)=O)s1 (stereo not drawn),"inconclusive: 0.013 µM [inhibitor, full curve]"
15,CC/C(=N\Nc1ccccc1)c1c(O)n(-c2ccccc2)c(=O)[nH]c1=O,"inconclusive: 2.91 µM [inhibitor, full curve]"
16,CC(=O)Nc1ccc(C(=O)OCC(=O)Nc2ccc(Cl)cc2C(=O)c2ccccc2)cc1,"inconclusive: 18.4 µM [inhibitor, single point]"
17,COc1cc(OC)cc(C(=O)Nc2ccc(Br)cc2C(=O)c2ccccc2)c1,inactive
18,COc1cccc(-c2cc(C(F)(F)F)n3nc(C(=O)N4CCC5(CC4)OCCO5)cc3n2)c1,"inconclusive: 11.6 µM [inhibitor, partial curve, poor fit]"
19,N#CC[N+]1(CCCNP2(=O)C=C(c3ccccc3)OC(c3ccccc3)=C2)CCOCC1,inactive
20,O=C(c1ccc(CNS(=O)(=O)c2ccccc2)cc1)N1CCC2(CC1)OCCO2,"inconclusive: 16.4 µM [activator, partial curve]"
21,C[C@]12CCC3C(C(=O)C[C@H]4C[C@@H](O)CC[C@]34C)C1CCC2=O (stereo partly drawn),inactive
22,COc1ccc(-n2c(/C=C/c3ccc(O)c(OC)c3)nc3ccccc3c2=O)cc1,"inconclusive: 4.11 µM [inhibitor, partial curve]"
